# Results: PubChem BioAssay AID504467 (National Center for Advancing Translational Sciences (NCATS), 2011)
# About 7,700 (2.3%) of roughly 330,000 compounds were called active. Inconclusive means that the source gave no clear call. Such entries were picked first, then a sample of the others. Calls come from the whole dose curve; as a rule, active = well fitted inhibition curve with a large enough effect; inconclusive = small, poorly fitted or top-dose-only effect, or effect the other way; inactive = flat fitted curve, though single readings scatter. Potencies of inconclusive entries are doubtful fits and often do not repeat.
# Experiment: qHTS screen for small molecules that inhibit ELG1-dependent DNA repair in human embryonic kidney (HEK293T) cells expressing luciferase-tagged ELG1; note: nearly all actives have a fitted effect of over 55% in size
# Details: HEK293T ELG1-luciferase reporter, luminescence, 16 h, DNA damage induced by 5-fluorouridine; series mostly up to 46.1 µM
# Outline: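 HEK293T cells expressing luciferase-tagged ELG1 (2,000/well) received 5-Fluorouridine plus compound or DMSO for 16 hr at 37 °C. Luciferase was read by ONE-Glo luminescence after 30 min at room temperature.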
# Potency is the fitted concentration of half-maximal effect.
row,SMILES,Potency
1,O=C(OCC(=O)N1CCCCCC1)c1cccc(Cl)c1,"inconclusive: 20.6 µM [activator, single point]"
2,COc1ccc(/C=N/c2c(-c3ccco3)nc3ccccn23)cc1OC,"inconclusive: 6.51 µM [activator, full curve]"
3,COc1cccc(C(=O)Nc2ccccc2NC(=O)c2cccc(OC)c2)c1,"inconclusive: 29.1 µM [inhibitor, single point]"
4,CCOc1cc(N2CCOCC2)c(OCC)cc1NC(=O)CC12CC3CC(CC(C3)C1)C2,"inconclusive: 16.4 µM [inhibitor, single point]"
5,CN(C)C(=O)C(Sc1ccc(S(=O)(=O)N2CCCC2)cn1)c1ccccc1 (centres undefined),inactive
6,Nn1c(Nc2ccccc2)nc2sc3c(c2c1=O)CCCC3,"inconclusive: 29.1 µM [inhibitor, single point]"
7,Cc1cc(N2C(=O)C=CC2=O)c([N+](=O)[O-])cc1C,"inconclusive: 29.1 µM [inhibitor, single point]"
8,CC(C)C(NC(=O)c1ccco1)C(=O)NCC(c1ccco1)N1CCCCC1 (centres undefined),inactive
9,CNC(=O)COc1coc(CN2CCN(C(=O)c3ccco3)CC2)cc1=O,"inconclusive: 0.231 µM [activator, partial curve, poor fit]"
10,Cn1c(=O)n(C)c2cc(NC(=O)CSc3ccccc3)ccc21,"inconclusive: 14.6 µM [activator, partial curve]"
11,CCCCC[n+]1ccn(-c2nc3ccccc3nc2[N-]S(=O)(=O)c2ccc(C)cc2)c1,"inconclusive: 35.5 µM [inhibitor, single point]"
12,CSc1nnc2c(n1)OC1(Nc3ccccc3-2)C(=O)Nc2ccccc21 (centres undefined),inactive
13,CC(NS(=O)(=O)c1ccc(Br)cc1)C(N)=O (centres undefined),inactive
14,CCOC(=O)c1c(NC(=O)CCS(=O)(=O)c2ccccc2)sc2c1CC(C)(C)NC2(C)C,inactive
15,Cc1ccc2nc(-c3ccc(N4C(=O)CC(N5CCC(C(N)=O)CC5)C4=O)cc3)sc2c1 (centres undefined),"inconclusive: 10.3 µM [activator, partial curve]"
16,COC(CNC(=O)c1cn(C)c2ccc(S(=O)(=O)N(C)C3CCCCC3)cc2c1=O)OC,active: 5.17 µM
17,O=C(Nc1cccc(Cl)c1)Nc1ccc(Br)cc1F,inactive
18,O=C(/C=C/c1ccccc1)Nc1ccc2c(c1)OCCO2,"inconclusive: 0.651 µM [activator, full curve]"
19,O=S(=O)(C/C(=C/CO)S(=O)(=O)c1ccccc1)c1ccccc1,"inconclusive: 25.9 µM [inhibitor, single point]"
20,C=CCOn1c(=O)c(-c2ccc(Cl)cc2)[n+]([O-])c2ccccc21,inactive
21,CCn1c(SCC(=O)Nc2ccc(N(C)C)cc2)nnc1-c1ccco1,inactive
22,Cn1cnc(Sc2ncnc3nc[nH]c23)c1[N+](=O)[O-],"inconclusive: 0.411 µM [inhibitor, full curve]"

# Nothing new here: nine of the compounds above.
row,SMILES,Potency
6,Nn1c(Nc2ccccc2)nc2sc3c(c2c1=O)CCCC3,"inconclusive: 29.1 µM [inhibitor, single point]"
7,Cc1cc(N2C(=O)C=CC2=O)c([N+](=O)[O-])cc1C,"inconclusive: 29.1 µM [inhibitor, single point]"
8,CC(C)C(NC(=O)c1ccco1)C(=O)NCC(c1ccco1)N1CCCCC1 (centres undefined),inactive
9,CNC(=O)COc1coc(CN2CCN(C(=O)c3ccco3)CC2)cc1=O,"inconclusive: 0.231 µM [activator, partial curve, poor fit]"
10,Cn1c(=O)n(C)c2cc(NC(=O)CSc3ccccc3)ccc21,"inconclusive: 14.6 µM [activator, partial curve]"
11,CCCCC[n+]1ccn(-c2nc3ccccc3nc2[N-]S(=O)(=O)c2ccc(C)cc2)c1,"inconclusive: 35.5 µM [inhibitor, single point]"
12,CSc1nnc2c(n1)OC1(Nc3ccccc3-2)C(=O)Nc2ccccc21 (centres undefined),inactive
13,CC(NS(=O)(=O)c1ccc(Br)cc1)C(N)=O (centres undefined),inactive
14,CCOC(=O)c1c(NC(=O)CCS(=O)(=O)c2ccccc2)sc2c1CC(C)(C)NC2(C)C,inactive

# More results:

row,SMILES,Potency
1,Cc1ccc(NC(=S)NC(=O)C2CC2)c(C)c1,"inconclusive: 20.6 µM [activator, partial curve]"
2,CCc1nonc1NC(=O)c1oc2ccc(F)cc2c1C,"inconclusive: 11.6 µM [activator, partial curve]"
3,O=C(/C=C/c1ccc(Cl)cc1Cl)NCCN1CCOCC1,"inconclusive: 32.6 µM [activator, partial curve, poor fit]"
4,c1cc2[nH]snc2c2nc(C3CC3)nc12,active: 5.8 µM
5,COc1cccc(NC(=O)Nc2nnc(-c3ccccc3SCc3ccccc3)s2)c1,"inconclusive: 29.1 µM [activator, partial curve, poor fit]"
6,CC(=O)Nc1ccc(NC(=O)C(C)OC(=O)CCc2c[nH]c3ccccc23)cc1 (centres undefined),"inconclusive: 3.55 µM [activator, single point]"
7,O=C(COC(=O)c1ccc([N+](=O)[O-])s1)c1ccc[nH]1,inactive
8,CCc1ccc(NC(=O)C(=O)N/N=C(\C)CC(=O)Nc2ccccn2)cc1,"inconclusive: 14.6 µM [activator, partial curve]"
9,CCOC(=O)C(Nc1ccc2ccccc2c1)C(=O)OCC,"inconclusive: 10.3 µM [activator, partial curve, poor fit]"
10,Cc1ccc(CNC(=O)CNC(=O)[C@@H]2Cc3ccccc3CN2C(=O)OC(C)(C)C)cc1,inactive
11,CCOc1cccc(C(=O)NC2CCCCC2)c1,"inconclusive: 8.2 µM [activator, single point]"
12,CN1CCN(c2ccccc2NC(=O)c2ccc(-c3ccccc3)cc2)CC1,"inconclusive: 23.1 µM [inhibitor, single point]"
13,CC(=O)Nc1ccc(CN2CCCC(CO)(Cc3cccc(Cl)c3)C2)cc1 (centres undefined),"inconclusive: 20.6 µM [activator, single point]"
14,Cc1onc(-c2ccccc2Cl)c1C(=O)NC(=S)Nc1ccc(C(C)C)cc1,inactive
15,COc1cccc(C(=O)NCCSc2c(C)[nH]c3ccccc23)c1OC,active: 23.1 µM
16,CCOC(=O)C1=C(C)Nc2ccccc2N=C1NC(=O)C1CCN(C(=O)c2ccccc2C)CC1,"inconclusive: 18.3 µM [inhibitor, partial curve]"
17,CCOc1cccc(NC(=O)c2ccc(S(=O)(=O)N3CCCC3)cc2)c1,"inconclusive: 10.3 µM [inhibitor, partial curve, poor fit]"
18,CS(=O)(=O)Nc1ccccc1C(=O)Nc1cc(Cl)cc(Cl)c1,"inconclusive: 3.66 µM [inhibitor, single point]"
19,CCN(CC)S(=O)(=O)c1ccc(OC)c(NC(=O)c2ccc(-n3cncn3)c([N+](=O)[O-])c2)c1,"inconclusive: 20.6 µM [inhibitor, single point]"
20,Cc1cccc(NC(=O)c2cc([N+](=O)[O-])ccc2NCC2CCCO2)n1 (centres undefined),active: 14.6 µM
21,COc1ccccc1C(=O)NC1CCN(C(=S)NCCc2ccccc2)CC1,"inconclusive: 29.1 µM [inhibitor, single point]"
22,CC(=O)c1sc(NC(=O)c2cccc3ccccc23)nc1C,"inconclusive: 20.6 µM [activator, partial curve]"
